Source: article PMC10163288
The other results are listed elsewhere or left out.

B1: il2ra_site1_2b5i_sap_14_mot_f5ff40796168375b462bec8614a1db4a_0001_1_000000138_0001_53_65_H_._HHH_b1_06270_0001_0000300018_0000001_0_0001_af2pred_dldesign_0_af2p … (protein)
chain: SSSSSPLEKLVDEAIAKAEELKKQGKVREALEALQEAYDKASEADDEELQDRIEEKAKELSSSSS
B2: il2ra_site1_2b5i_normal_mot_f5ff40796168375b462bec8614a1db4a_0001_1_000000138_0001_53_65_H_._HHH_b2_04872_0001_0000400010_0000001_0_af2pred_dldesign_0_af2pred (protein)
chain: SSSSSSSVREDVDALLALAREEEDPVLRRRLLKLAEQLARKSGDPELVARVEEVRAELSSSSSSS
B3: il2ra_site1_3nfp_normal_mot_22aa8d8ad8dce7f663ea8fa348a52261_0001_000000276_0001_17_32_H_._a3b61943b7af24100a309c62926c5c00_0001_0001_0000400023_0000001_0_af2pr … (protein)
chain: SLEEKFEQVAREVGLPPVDIRAVKRIIEEARRQGVPPERILEALEDLAKALRDPDLEEVVELLER
B4: il2ra_site2_2erj_normal_mot_HHH_b2_01031_af2_000000243_0001_19_35_H_._HHH_b2_02620_af2_0001_0000600009_0000001_1 (protein)
chain: SSSSDLEEEVRELLEEIRELIKRGDEEEAEKLLHEAAELAFENNNFELFALISELFELLVRSSSS
B5: il2ra_site1_1z92_sap_17_mot_HHH_b1_07828_af2_000000107_0001_18_34_H_._HHH_b1_02318_0001_0000100003_0000001_0_0001_af2pred_0001_af2pred_swapped (protein)
chain: HDAEAVARQLEHFARRAGVKEVSVEVRNGTFHITVKGDDTHSESVRKLAEKLVKRSGHELEVETK
B6: il2ra_site2_3nfp_sap_17_mot_HHH_b2_07560_000000133_0001_43_56_H_._HHH_b2_05526_af2_0001_0000400015_0000001_0_0001 (protein)
chain: SSSSSSKAEEYVRAALALLKRIKDEELFERHREVIRLAIEDQGNEELRELLEEIEKQYRSSSSSS
B7: il2ra_site1_1z92_sap_14_mot_35b94aac26684153dbcc4bf06a514b74_0001_1_000000068_0001_35_49_H_._HHH_b2_01455_af2_0001_0000100011_0000001_0_0001 (protein)
chain: SSSSSDEKVAKAIVRVLVQVARLSEEQEEILERLAEELVREGYSALEIMRILDKRAAELQSSSSS
B8: il2ra_site1_1z92_sap_14_mot_HHH_b2_04375_000000267_0001_42_56_H_._HHH_b1_00305_0001_0000100012_0000001_0_0001_af2pred_0001_af2pred_1 (protein)
chain: SSSSSDKEELLERVTELWRRLAKVSREEAEKLLEEAEELAEEAGDELIEEELRHFLERLSSSSSS
B9: il2ra_site1_3nfp_sap_10_mot_86920ccf215a9397388743310839e631_0001_1_000000296_0001_18_34_H_._HHH_b1_06234_0001_0000700033_0000001_1_0001_af2pred_0001_af2pred_sw … (protein)
chain: TILERLIALAVEEGNERQIKRVVEQMEKRLGDPEEARRLVVRALERALNIPPEEAEELVEELLER
B10: il2ra_site2_3nfp_sap_23_mot_HHH_b2_04927_af2_000000190_0001_39_52_H_._HHH_b1_06590_af2_0001_0000200026_0000001_0_0001 (protein)
chain: SSSSDIKEEYLEALKLLIERAIEEGDREAAEKLLRRAKLIAESRHDEEIREELEELEEKINSSSS
B11: il2ra_site2_3nfp_normal_mot_HHH_b1_05627_af2_000000038_0001_43_56_H_._HHH_b1_07199_af2_0001_0000600017_0000001_0 (protein)
chain: SSSSDKAEEYLRIALELLEEAIKAGDEESAKSILEVARLAAELHNDEEVEERLEELEELLSSSSS
B12: il2ra_site2_2erj_sap_20_mot_HHH_b1_01129_af2_000000281_0001_18_33_H_._5bdd4610f343b6a2bc5b56655e81a1bb_0001_1_0001_0000100005_0000001_0_0001 (protein)
chain: SSSSDEERIEELIERAEQLLEEGNPEEARELLREAAEIAFELGNFELFSRLAELALEAFELSSSS
B13: il2ra_site2_2erj_normal_mot_af86707857d369f3e1d85dcabc5f9321_0001_000000201_0001_14_29_H_._HHH_b2_01431_af2_0001_0000200019_0000001_0 (protein)
chain: SSSSEEAEELLEQAKELLEKGNPEEALKLLSRAFEIAYRLGDHELAAELQTLAHEAVKLEASSSS
B14: il2ra_site1_2b5i_normal_mot_ems_3hM_3687_af2_000000248_0001_45_64_H_._HHH_b1_00339_0001_0001500122_0000001_0_af2pred_dldesign_0_af2pred (protein)
chain: SSSSSAALAFAERAAREARRLAAAGRRREALELLEAAAKALDEEGLDEKADELYELARELSSSSS
B15: il2ra_site2_2erj_sap_22_mot_46479c6699afdbd8d5d5faf00326b0b9_0001_1_af2_000000112_0001_34_47_H_._HHH_b2_06957_af2_0001_0000500027_0000001_0_0001_af2pred_0001_af … (protein)
chain: SSSSDEYEEILKEYEKAAEELGDKKAEILLRLATEAAKKLGLSEEELRELLKHILEAIEEGSSSS
B16: il2ra_site1_2b5i_sap_9_mot_0921d739bb7547bb6fa23329820ad62a_0001_000000012_0001_54_65_H_._HHH_b2_02673_0001_0000100006_0000001_0_0001_af2pred_dldesign_0_af2pred (protein)
chain: SSSSSSDLAALEAEARRLADAGKRREALELLDAAYKAAAAAGDEEAEERLYELAKTLKSSSSSSS
B17: il2ra_site1_2b5i_normal_mot_HHH_b2_04910_000000118_0001_1_19_H_._HHH_b1_03439_af2_0001_0000300011_0000001_0 (protein)
chain: SSSSNEAERARELFREADELDKNGNPEEAEEVLEEAEEFAERGGSRSLLRMIRYALEELRGSSSS
B18: il2ra_site2_3nfp_normal_mot_HHH_b1_00660_af2_000000090_0001_40_57_H_._HHH_b1_08415_0001_0000600024_0000001_0_af2pred_0001_1_af2pred_swapped (protein)
chain: SSSSSSDVEELIEEAERLLEEGDPEEAREILRRAASLAYELGDVELFARILELLLEIHSSSSSSS

Each binder was assayed against il2ra, P01589 (assay: yeast display titration).

Apparent Kd, inactive:
B1 no binding seen
B2 no binding seen
B3 no binding seen
B4 no binding seen
B5 no binding seen
B6 no binding seen
B7 no binding seen
B8 no binding seen
B9 no binding seen
B10 no binding seen
B11 no binding seen
B12 no binding seen
B13 no binding seen
B14 no binding seen
B15 no binding seen
B16 no binding seen
B17 no binding seen
B18 no binding seen

Reprinted at random: two records from the list.
Apparent Kd, inactive:
B17 no binding seen
B4 no binding seen
